Assay results reported in patent US20250064952A1 (ACCELERON PHARMA, published 2025).
These are yes or no findings as the source states them, for the method shown. Some entries that bind do so weakly or less than the wild type. Sequences can lack the tags named with a protein.

Assays:
[1] = biological target: T1, BMP5 (UniProt P22003 317-454, limits assumed); assay: SPR (Biacore), anti-Fc capture, ligand in flow
T1 sequence (looked up): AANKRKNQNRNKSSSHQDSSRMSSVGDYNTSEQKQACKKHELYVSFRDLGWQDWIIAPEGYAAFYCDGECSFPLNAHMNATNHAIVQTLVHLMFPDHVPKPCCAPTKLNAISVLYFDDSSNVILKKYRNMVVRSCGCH
Protocol: A Biacore™-based binding assay was used to compare ligand binding selectivity of the ActRIIB-Fc:ALK7-Fc heterodimeric complex described above with that of ActRIIB-Fc and ALK7-Fc homodimeric complexes. The ActRIIB-Fc:ALK7-Fc heterodimer, ActRIIB-Fc homodimer, and ALK7-Fc homodimer were independently captured onto the system using an anti-Fc antibody. Ligands were injected and allowed to flow over the captured receptor protein. Results are summarized in the table below, in which ligand off-rates (kd) most indicative of effective ligand traps are denoted by bold font.

[2] = biological target: T2, GDF11 (UniProt O95390 299-407); assay: SPR (Biacore), anti-Fc capture, ligand in flow
T2 construct: also called BMP11
T2 sequence (looked up): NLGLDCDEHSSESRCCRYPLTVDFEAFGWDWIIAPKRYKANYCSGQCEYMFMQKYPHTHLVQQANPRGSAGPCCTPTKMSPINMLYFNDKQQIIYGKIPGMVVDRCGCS

[3] = biological target: T3, BMP9 (UniProt Q9UK05 320-429); assay: SPR (Biacore), anti-Fc capture, ligand in flow
T3 construct: also called GDF2
T3 sequence (looked up): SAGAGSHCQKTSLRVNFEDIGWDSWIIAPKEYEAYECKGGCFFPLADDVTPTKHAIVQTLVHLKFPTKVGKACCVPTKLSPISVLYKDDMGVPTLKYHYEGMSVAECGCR

[4] = biological target: T4, activin B (UniProt P09529 293-407); assay: SPR (Biacore), anti-Fc capture, ligand in flow
T4 sequence (looked up): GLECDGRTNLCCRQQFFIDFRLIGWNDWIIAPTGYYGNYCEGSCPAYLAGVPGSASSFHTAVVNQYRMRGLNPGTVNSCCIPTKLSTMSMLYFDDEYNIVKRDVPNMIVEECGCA

[5] = biological target: T5, BMP6 (UniProt P22004 382-513, limits assumed); assay: SPR (Biacore), anti-Fc capture, ligand in flow
T5 sequence (looked up): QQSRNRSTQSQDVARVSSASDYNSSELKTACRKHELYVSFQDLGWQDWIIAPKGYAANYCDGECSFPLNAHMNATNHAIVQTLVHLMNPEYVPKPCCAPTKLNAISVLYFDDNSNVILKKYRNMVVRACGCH

[6] = biological target: T6, BMP10 (UniProt O95393 317-424); assay: SPR (Biacore), anti-Fc capture, ligand in flow
T6 sequence (looked up): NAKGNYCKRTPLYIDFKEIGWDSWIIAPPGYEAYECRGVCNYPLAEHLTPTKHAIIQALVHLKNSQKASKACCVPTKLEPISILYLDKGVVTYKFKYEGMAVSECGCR

[7] = biological target: T7, GDF8 (UniProt O14793 267-375); assay: SPR (Biacore), anti-Fc capture, ligand in flow
T7 construct: also called myostatin
T7 sequence (looked up): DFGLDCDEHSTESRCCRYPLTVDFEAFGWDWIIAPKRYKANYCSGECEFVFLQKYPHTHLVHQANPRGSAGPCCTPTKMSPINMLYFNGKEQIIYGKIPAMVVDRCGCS

[8] = biological target: T8, GDF3 (UniProt Q9NR23 251-364); assay: SPR (Biacore), anti-Fc capture, ligand in flow
T8 construct: also called VGR2
T8 sequence (looked up): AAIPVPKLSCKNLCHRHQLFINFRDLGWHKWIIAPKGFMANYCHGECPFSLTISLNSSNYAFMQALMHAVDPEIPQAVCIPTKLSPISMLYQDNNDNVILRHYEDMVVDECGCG

[9] = biological target: T2, GDF11; assay: SPR (Biacore), ligands ranked by koff
[10] = biological target: T3, BMP9; assay: SPR (Biacore), ligands ranked by koff
[11] = biological target: T4, activin B; assay: SPR (Biacore), ligands ranked by koff
[12] = biological target: T5, BMP6; assay: SPR (Biacore), ligands ranked by koff
[13] = biological target: T1, BMP5; assay: SPR (Biacore), ligands ranked by koff
[14] = biological target: T6, BMP10; assay: SPR (Biacore), ligands ranked by koff
[15] = biological target: T7, GDF8; assay: SPR (Biacore), ligands ranked by koff
[16] = biological target: T8, GDF3; assay: SPR (Biacore), ligands ranked by koff

Measured: binding

B1: ActRIIB-Fc homodimer (Fc fusion, human, UniProt Q13705 19-137, looked up, not shown: a dimerising Fc or GST)
chain: SGRGEAETRECIYYNANWELERTNQSGLERCEGEQDKRLHCYASWRNSSGTIELVKKGCWLDDFNCYDRQECVATEENPQVYFCCCEGNFCNERFTHLPEAGGPEVTYEPPPTAPTLLT
notes: extracellular domain; also called unmodified ActRIIB-Fc homodimer; ActRIIB-Fc:ActRIIB-Fc homodimer
binds: all assays above
